Measurements from PMC12528448, “Resistance to CDK7 inhibitors directed by acquired mutation of a conserved residue in cancer cells” (The EMBO Journal, 2025).
Values joined by “and” are separate entries in the source; they are usually repeats but may differ in a detail not shown here. Equal entries are not always repeated. This continues a long series; more values of the same kind are listed elsewhere.

Legend:
[1] = tested on: MCF7-CDK4^D99N (CL1) cells; assay: IncuCyte confluency growth, homozygous CDK4 D99N clone CL1; assay type: cell-based, human
Method: (§1) To determine the IC50 of drug treatments on growth, cells were seeded in 96-well culture plates. Two days after seeding, the cells were treated with increasing concentrations of drugs and incubated for 4 days. Cell number was determined using the SRB assay (Skehan et al, [1990]), and IC50 values were calculated using non-linear regression curve fitting in GraphPad Prism v10. For all other growth experiments, cells were seeded into 96-well plates, and appropriate drugs were added 2 days after seeding. Cells were then incubated in an IncuCyte Zoom live-cell imager, with cell confluency measured every 6 h. Cell doubling times were determined by non-linear curve fitting (exponential growth equation) in GraphPad Prism v10.

[2] = tested on: MCF7 cells; assay: IncuCyte confluency growth, MCF7; assay type: cell-based, human
Method: as §1

Which “% Confluency” value ([1]; MCF7 CDK4 D99N/D99N CL1, 500nM Palbociclib, 144 Hours) does the source give for `CC(=O)c1c(C)c2cnc(Nc3ccc(N4CCNCC4)cn3)nc2n(C2CCCC2)c1=O` [Palbociclib] here?
The value was 73.62% and 74.74% and 74.56%.

And the “% Confluency” value ([1]; MCF7 CDK4 D99N/D99N CL1, 500nM Palbociclib, 156 Hours)?
Its value is 87.81% and 83.58% and 82.83%.

And the “% Confluency” value ([1]; MCF7 CDK4 D99N/D99N CL1, 500nM Palbociclib, 168 Hours)?
The value was 94.40% and 90.42% and 83.33%.

What about the “% Confluency” value ([1]; MCF7 CDK4 D99N/D99N CL1, 500nM Palbociclib, 180 Hours) of the same molecule?
The value was 97.13% and 92.69% and 86.11%.

And the “% Confluency” value ([1]; MCF7 CDK4 D99N/D99N CL1, 500nM Palbociclib, 192 Hours)?
The value was 98.13% and 96.59% and 92.91%.

What about the “% Confluency” value ([1]; MCF7 CDK4 D99N/D99N CL1, 500nM Palbociclib, 204 Hours) of the same molecule?
The value was 98.39% and 98.64% and 96.44%.

What about the “% Confluency” value ([1]; MCF7 CDK4 D99N/D99N CL1, 500nM Palbociclib, 216 Hours) of the same molecule?
The value was 98.42% and 99.24% and 97.64%.

What about the “% Confluency” value ([1]; MCF7 CDK4 D99N/D99N CL1, 500nM Palbociclib, 228 Hours) of the same molecule?
Its value is 98.46% and 99.52% and 98.27%.

What about the “% Confluency” value ([1]; MCF7 CDK4 D99N/D99N CL1, 500nM Palbociclib, 240 Hours) of the same molecule?
The value was 98.59% and 99.53% and 98.58%.

What about the “% Confluency” value ([1]; MCF7 CDK4 D99N/D99N CL1, 500nM Palbociclib, 252 Hours) of the same molecule?
Its value is 98.52% and 99.49% and 98.57%.

And the “% Confluency” value ([1]; MCF7 CDK4 D99N/D99N CL1, 1000nM Palbociclib, 120 Hours)?
The value was 52.22% and 37.71% and 44.80%.

And the “% Confluency” value ([1]; MCF7 CDK4 D99N/D99N CL1, 1000nM Palbociclib, 132 Hours)?
Its value is 55.86% and 45.15% and 52.18%.

And the “% Confluency” value ([1]; MCF7 CDK4 D99N/D99N CL1, 1000nM Palbociclib, 144 Hours)?
Its value is 66.80% and 49.10% and 62.38%.

What about the “% Confluency” value ([1]; MCF7 CDK4 D99N/D99N CL1, 1000nM Palbociclib, 156 Hours) of the same molecule?
The value was 83.61% and 56.08% and 71.30%.

What about the “% Confluency” value ([1]; MCF7 CDK4 D99N/D99N CL1, 1000nM Palbociclib, 168 Hours) of the same molecule?
The value was 91.93% and 62.67% and 70.23%.

What about the “% Confluency” value ([1]; MCF7 CDK4 D99N/D99N CL1, 1000nM Palbociclib, 180 Hours) of the same molecule?
The value was 93.22% and 66.75% and 74.34%.

And the “% Confluency” value ([1]; MCF7 CDK4 D99N/D99N CL1, 1000nM Palbociclib, 192 Hours)?
Its value is 95.39% and 74.95% and 82.77%.

What about the “% Confluency” value ([1]; MCF7 CDK4 D99N/D99N CL1, 1000nM Palbociclib, 204 Hours) of the same molecule?
The value was 98.19% and 81.30% and 88.83%.

And the “% Confluency” value ([1]; MCF7 CDK4 D99N/D99N CL1, 1000nM Palbociclib, 216 Hours)?
Its value is 98.08% and 85.95% and 91.40%.

What about the “% Confluency” value ([1]; MCF7 CDK4 D99N/D99N CL1, 1000nM Palbociclib, 228 Hours) of the same molecule?
Its value is 97.68% and 88.59% and 93.46%.

What about the “% Confluency” value ([1]; MCF7 CDK4 D99N/D99N CL1, 1000nM Palbociclib, 240 Hours) of the same molecule?
Its value is 97.58% and 90.52% and 94.49%.

And the “% Confluency” value ([1]; MCF7 CDK4 D99N/D99N CL1, 1000nM Palbociclib, 252 Hours)?
The value was 97.57% and 91.68% and 95.14%.

What about the “% Conluency” value ([2]; MCF7, 50nM Palbociclib, 0 Hours) of the same molecule?
The value was 5.81% and 4.92% and 9.85%.

And the “% Conluency” value ([2]; MCF7, 50nM Palbociclib, 12 Hours)?
Its value is 9.07% and 7.97% and 15.01%.

And the “% Conluency” value ([2]; MCF7, 50nM Palbociclib, 24 Hours)?
The value was 12.88% and 11.08% and 21.58%.

And the “% Conluency” value ([2]; MCF7, 50nM Palbociclib, 36 Hours)?
The value was 16.26% and 13.95% and 25.45%.

What about the “% Conluency” value ([2]; MCF7, 50nM Palbociclib, 156 Hours) of the same molecule?
Its value is 98.19% and 83.49% and 99.44%.

And the “% Conluency” value ([2]; MCF7, 50nM Palbociclib, 168 Hours)?
Its value is 99.47% and 89.55% and 99.79%.

What about the “% Conluency” value ([2]; MCF7, 50nM Palbociclib, 180 Hours) of the same molecule?
The value was 99.91% and 94.98% and 99.50%.

What about the “% Conluency” value ([2]; MCF7, 50nM Palbociclib, 192 Hours) of the same molecule?
The value was 99.88% and 97.80% and 99.95%.

And the “% Conluency” value ([2]; MCF7, 50nM Palbociclib, 204 Hours)?
Its value is 99.82% and 98.81% and 99.97%.

What about the “% Conluency” value ([2]; MCF7, 50nM Palbociclib, 216 Hours) of the same molecule?
The value was 99.72% and 99.43% and 99.88%.

What about the “% Conluency” value ([2]; MCF7, 50nM Palbociclib, 228 Hours) of the same molecule?
The value was 99.65% and 99.54% and 99.53%.

And the “% Conluency” value ([2]; MCF7, 50nM Palbociclib, 240 Hours)?
Its value is 99.60% and 99.14%.

What about the “% Conluency” value ([2]; MCF7, 50nM Palbociclib, 252 Hours) of the same molecule?
The value was 99.58% and 99.64% and 99.20%.

And the “% Conluency” value ([2]; MCF7, 100nM Palbociclib, 0 Hours)?
The value was 5.96% and 5.11% and 9.12%.

And the “% Conluency” value ([2]; MCF7, 100nM Palbociclib, 12 Hours)?
Its value is 9.38% and 8.10% and 14.16%.

What about the “% Conluency” value ([2]; MCF7, 100nM Palbociclib, 24 Hours) of the same molecule?
The value was 13.50% and 11.31% and 20.17%.

What about the “% Conluency” value ([2]; MCF7, 100nM Palbociclib, 36 Hours) of the same molecule?
Its value is 16.63% and 13.71% and 23.01%.

And the “% Conluency” value ([2]; MCF7, 100nM Palbociclib, 144 Hours)?
The value was 64.71% and 92.44%.

And the “% Conluency” value ([2]; MCF7, 100nM Palbociclib, 156 Hours)?
Its value is 95.54% and 70.80% and 96.02%.

What about the “% Conluency” value ([2]; MCF7, 100nM Palbociclib, 168 Hours) of the same molecule?
Its value is 98.36% and 76.85% and 98.13%.

And the “% Conluency” value ([2]; MCF7, 100nM Palbociclib, 180 Hours)?
The value was 99.12% and 83.92% and 96.98%.

What about the “% Conluency” value ([2]; MCF7, 100nM Palbociclib, 192 Hours) of the same molecule?
The value was 99.58% and 88.48% and 99.16%.

And the “% Conluency” value ([2]; MCF7, 100nM Palbociclib, 204 Hours)?
The value was 99.68% and 90.68% and 99.79%.

And the “% Conluency” value ([2]; MCF7, 100nM Palbociclib, 216 Hours)?
The value was 99.43% and 92.90% and 99.75%.

What about the “% Conluency” value ([2]; MCF7, 100nM Palbociclib, 228 Hours) of the same molecule?
The value was 99.23% and 94.71% and 99.36%.

And the “% Conluency” value ([2]; MCF7, 100nM Palbociclib, 240 Hours)?
The value was 99.26% and 95.89% and 98.93%.

What about the “% Conluency” value ([2]; MCF7, 100nM Palbociclib, 252 Hours) of the same molecule?
Its value is 99.17% and 97.06% and 98.62%.

And the “% Conluency” value ([2]; MCF7, 500nM Palbociclib, 0 Hours)?
The value was 5.68% and 4.70% and 9.43%.

And the “% Conluency” value ([2]; MCF7, 500nM Palbociclib, 12 Hours)?
Its value is 9.05% and 7.22% and 14.73%.

And the “% Conluency” value ([2]; MCF7, 500nM Palbociclib, 36 Hours)?
Its value is 15.41% and 12.51% and 23.55%.

And the “% Conluency” value ([2]; MCF7, 500nM Palbociclib, 156 Hours)?
The value was 46.22% and 34.56% and 61.68%.

What about the “% Conluency” value ([2]; MCF7, 500nM Palbociclib, 168 Hours) of the same molecule?
The value was 48.93% and 37.64% and 66.31%.

And the “% Conluency” value ([2]; MCF7, 500nM Palbociclib, 180 Hours)?
The value was 50.40% and 42.26% and 62.99%.

What about the “% Conluency” value ([2]; MCF7, 500nM Palbociclib, 192 Hours) of the same molecule?
The value was 53.86% and 45.23% and 67.65%.

What about the “% Conluency” value ([2]; MCF7, 500nM Palbociclib, 204 Hours) of the same molecule?
The value was 59.31% and 48.73% and 70.39%.

What about the “% Conluency” value ([2]; MCF7, 500nM Palbociclib, 216 Hours) of the same molecule?
Its value is 62.70% and 52.14% and 74.38%.

And the “% Conluency” value ([2]; MCF7, 500nM Palbociclib, 228 Hours)?
Its value is 66.25% and 56.49% and 78.80%.

And the “% Conluency” value ([2]; MCF7, 500nM Palbociclib, 240 Hours)?
Its value is 68.95% and 60.03% and 80.83%.

What about the “% Conluency” value ([2]; MCF7, 500nM Palbociclib, 252 Hours) of the same molecule?
The value was 72.33% and 62.89% and 83.29%.

What about the “% Conluency” value ([2]; MCF7, 1000nM Palbociclib, 0 Hours) of the same molecule?
The value was 5.42% and 4.48% and 8.25%.

And the “% Conluency” value ([2]; MCF7, 1000nM Palbociclib, 12 Hours)?
Its value is 8.70% and 6.97% and 12.50%.

And the “% Conluency” value ([2]; MCF7, 1000nM Palbociclib, 24 Hours)?
The value was 12.53% and 9.64% and 17.69%.

And the “% Conluency” value ([2]; MCF7, 1000nM Palbociclib, 36 Hours)?
Its value is 14.93% and 11.85% and 20.63%.

What about the “% Conluency” value ([2]; MCF7, 1000nM Palbociclib, 156 Hours) of the same molecule?
The value was 36.67% and 29.16% and 46.09%.

What about the “% Conluency” value ([2]; MCF7, 1000nM Palbociclib, 168 Hours) of the same molecule?
The value was 38.61% and 30.34% and 47.45%.

What about the “% Conluency” value ([2]; MCF7, 1000nM Palbociclib, 180 Hours) of the same molecule?
Its value is 38.65% and 32.86% and 45.29%.

What about the “% Conluency” value ([2]; MCF7, 1000nM Palbociclib, 192 Hours) of the same molecule?
The value was 40.80% and 34.16% and 47.37%.

What about the “% Conluency” value ([2]; MCF7, 1000nM Palbociclib, 204 Hours) of the same molecule?
Its value is 43.97% and 35.98% and 48.75%.

What about the “% Conluency” value ([2]; MCF7, 1000nM Palbociclib, 216 Hours) of the same molecule?
The value was 45.95% and 37.06% and 50.37%.

And the “% Conluency” value ([2]; MCF7, 1000nM Palbociclib, 228 Hours)?
Its value is 47.70% and 39.11% and 51.91%.

And the “% Conluency” value ([2]; MCF7, 1000nM Palbociclib, 240 Hours)?
The value was 49.98% and 41.67% and 53.33%.

And the “% Conluency” value ([2]; MCF7, 1000nM Palbociclib, 252 Hours)?
Its value is 51.10% and 41.67% and 53.63%.
